No constants are given. Whether binding was seen depends on the method and setting. In cells and extracts the contact can be indirect. These calls come from enrichment with a bait or labelling near it, and not all partners need be listed. Sequences can lack the tags named with a protein.

Results on 7 molecules are retold here after paper doi:10.1101/2023.03.18.533296.

This assay concerns the target T1, GFP-VAMP721^Y57D (Arabidopsis thaliana) (UniProt Q9ZTW3).
T1 sequence: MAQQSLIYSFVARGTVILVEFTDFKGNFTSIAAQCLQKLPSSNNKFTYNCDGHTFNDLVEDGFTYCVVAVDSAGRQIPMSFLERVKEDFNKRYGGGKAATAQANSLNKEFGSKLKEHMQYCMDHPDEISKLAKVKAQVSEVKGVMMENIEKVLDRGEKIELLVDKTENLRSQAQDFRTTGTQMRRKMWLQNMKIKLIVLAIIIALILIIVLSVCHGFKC
The assay is described as follows: affinity purification with mass spectrometry.

B1: HSP90-5 (protein, UniProt Q9SIF2 61-780)
chain: CDAAVAEKETTEEGSGEKFEYQAEVSRLLDLIVHSLYSHKEVFLRELVSNASDALDKLRFLSVTEPSLLGDGGDLEIRIKPDPDNGTITITDTGIGMTKEELIDCLGTIAQSGTSKFLKALKENKDLGADNGLIGQFGVGFYSAFLVAEKVVVSTKSPKSDKQYVWESVADSSSYLIREETDPDNILRRGTQITLYLREDDKYEFAESTRIKNLVKNYSQFVGFPIYTWQEKSRTIEVEEDEPVKEGEEGEPKKKKTTKTEKYWDWELANETKPLWMRNSKEVEKGEYNEFYKKAFNEFLDPLAHTHFTTEGEVEFRSILYIPGMGPLNNEDVTNPKTKNIRLYVKRVFISDDFDGELFPRYLSFVKGVVDSDDLPLNVSREILQESRIVRIMRKRLIRKTFDMIQEISESENKEDYKKFWENFGRFLKLGCIEDTGNHKRITPLLRFFSSKNEEELTSLDDYIENMGENQKAIYYLATDSLKSAKSAPFLEKLIQKDIEVLYLVEPIDEVAIQNLQTYKEKKFVDISKEDLELGDEDEVKDREAKQEFNLLCDWIKQQLGDKVAKVQVSNRLSSSPCVLVSGKFGWSANMERLMKAQALGDTSSLEFMRGRRILEINPDHPIIKDLNAACKNAPESTEATRVVDLLYDTAIISSGFTPDSPAELGNKIYEMMAMAVGGRWGRVEEEEESSTVNEGDDKSGETEVVEPSEVRAESDPWQD
B1: the binding entry is on record as “binds”.

B2: HSP70-9 (protein, UniProt Q8GUM2 47-682)
chain: SRPVGNDVIGIDLGTTNSCVSVMEGKTARVIENAEGSRTTPSVVAMNQKGELLVGTPAKRQAVTNPTNTIFGSKRLIGRRFDDPQTQKEMKMVPYKIVKAPNGDAWVEANGQKFSPSQIGANVLTKMKETAEAYLGKSINKAVVTVPAYFNDAQRQATKDAGKIAGLDVQRIINEPTAAALSYGMNNKEGVIAVFDLGGGTFDVSILEISSGVFEVKATNGDTFLGGEDFDNTLLEYLVNEFKRSDNIDLTKDNLALQRLREAAEKAKIELSSTTQTEINLPFITADASGAKHLNITLTRSKFEGLVGKLIERTRSPCQNCLKDAGVTIKEVDEVLLVGGMTRVPKVQEIVSEIFGKSPCKGVNPDEAVAMGAAIQGGILRGDVKDLLLLDVVPLSLGIETLGAVFTKLIPRNTTIPTKKSQVFSTAADNQMQVGIKVLQGEREMAADNKVLGEFDLVGIPPAPRGMPQIEVTFDIDANGITTVSAKDKATGKEQNITIRSSGGLSDDEINRMVKEAELNAQKDQEKKQLIDLRNSADTTIYSVEKSLSEYREKIPAEIASEIETAVSDLRTAMAGEDVEDIKAKVEAANKAVSKIGEHMSKGSGSSGSDGSSGEGTSGTEQTPEAEFEEASGSRK
Consider B2, for which the binding result is listed as “binds”.

B3: RPT1A (26S proteasome regulatory subunit) (protein, UniProt Q9SSB5 1-426)
chain: MVRDIEDEIRDEKNPRPLDEDDIALLKTYGLGPYSAPIKKVEKEIKDLAKKINDLCGIKESDTGLAPPSQWDLVSDKQMMQEEQPLQVARCTKIISPNTEDAKYVINVKQIAKFVVGLGDKVSPTDIEEGMRVGVDRNKYQIQIPLPPKIDPSVTMMTVEEKPDVTYNDVGGCKEQIEKMREVVELPMLHPEKFVKLGIDPPKGVLCYGPPGTGKTLLARAVANRTDACFIRVIGSELVQKYVGEGARMVRELFQMARSKKACIVFFDEVDAIGGARFDDGVGGDNEVQRTMLEIVNQLDGFDARGNIKVLMATNRPDTLDPALLRPGRLDRKVEFGLPDLESRTQIFKIHTRTMNCERDIRFELLARLCPNSTGADIRSVCTEAGMYAIRARRKTVTEKDFLDAVNKVIKGYQKFSATPKYMVYN
For the molecule B3, the binding entry is on record as “binds”.

B4: RPN7 (26S proteasome non-ATPase regulatory subunit) (protein, UniProt Q93Y35 1-387)
chain: MDGGAEGSQQPHLILANKLFLLTHPDVPDIEKVQLKSEVLDFIRSHGMAPLYETLIASSVLDLDQSLLESMRAANEEELKKLDEKIADAEENLGESEVREAHLAKALYFIRISDKEKALEQLKLTEGKTVAVGQKMDVVFYTLQLAFFYMDFDLVSKSIDKAKKLFEEGGDWERKNRLKVYEGLYCMSTRNFKKAASLFLDSISTFTTYEIFPYETFIFYTVLTSIITLDRVSLKQKVVDAPEILTVLGKIPFLSEFLNSLYECQYKAFFSAFAGMAVQIKYDRYLYPHFRFYMREVRTVVYSQFLESYKSVTVEAMAKAFGVSVDFIDQELSRFIAAGKLHCKIDKVAGVLETNRPDAKNALYQATIKQGDFLLNRIQKLSRVIDL
Turning to B4, the binding entry is given as “binds”.

B5: RPN6 (26S proteasome non-ATPase regulatory subunit) (protein, UniProt Q9LP45 1-419)
chain: MVSYRATTETISLALEANSSEAITILYQVLEDPSSSPEAIRIKEQAITNLCDRLTEEKRGEDLRKLLTKLRPFFSLIPKAKTAKIVRGIIDAVAKIPGTTDLQITLCKEMVEWTRAEKRTFLRQRVEARLAALLMENKEYVEALALLSTLVKEVRRLDDKLLLVDIDLLESKLHFSLRNLPKAKAALTAARTAANAIYVPPAQQGTIDLQSGILHAEEKDYKTGYSYFFEAFESFNALGDPRAVFSLKYMLLCKIMVSQADDVAGIISSKAGLQYVGPDLDAMKAVADAHSKRSLKLFENALRDYKAQLEDDPIVHRHLSSLYDTLLEQNLCRLIEPFSRVEIAHIAELIGLPLDHVEKKLSQMILDKKFAGTLDQGAGCLIIFEDPKADAIYSATLETIANMGKVVDSLYVRSAKIMS
B5: the binding entry is given as “binds”.

B6: BAG6 (protein, UniProt O82345)
chain: MMPVYMDPSQPCQMRPQEYYYQGFGNNSQHMAMDAPPPCHGSCVHGNFPAYWPPCYPPQVPYHQCCMNRSAFHPPHASYAPSCYVHPPFPVGYQPWFDVEKDVPGKHHCGKCSSQMCDLKKDRGVVIEEHEPEIEKGEAVLPVRSTNCPYPIIWIPHENARNQEYRSSLGLGKHNQPPAEVRAPDNMTIQKSFPESWRGCFPFDESSMKSLVQNQDSKKAQNGKTVEAPFDISKFKSLLQGQDMKEAQIQKNKEELGQLTYPTSWVPSRRKRDDVEASESSNEDRKKMQNGKTVEYPFDISMIKSLIQGQDVKEAQNQKNKEEPGQVPYPIFWIPSYGKRKDVEASESKESSNEGRNLESCPSDLHRNEGQITQAKGKEGNFECNVLSDAEEKSSVINIPVANHLQEPRNIPVKLSENHLPKPTEPTKRIAKNEPVKSTKKEQSSSSSEASKLPPVCLRVDPLPKERNGGSKSVSHPKRMEKSKETKIAAPLSSKKAESRTVPEACNVKCEDANAEMKMAEGSLNALRTEKGSVESNSNLQEESNGEIIKPCEAKENREQPAKKSFTEEEAARIIQSMYRGYDVRRWEPIKKLKEIATVREQMGDVKKRIEALEASTDQHIEEKEIVVNGELVMNLLLKLDAVEGLHPSIREFRKALATELSSIQDKLDSLKNSCASAEKEAVKEQVEIKSQPSDSPVNLEHSQLTEENKMVSDTNLEKVLRLSPEEHPMSVLNRTDEKQAESAAETEEGYGLFETLATDSKQATENAAAASSTTIPEKIGEVETVVPGNPPSADGNGMTVTNVEENKAMVVESLEEPINELPQMVEETETNSIRDPENASEVSEAETNSSENENRKGEDDIVLHSEKNVELSELPVGVIDEETQPLSQDPSSSYTREGNMTAMDPKTASQEETEVDHSPNNSKGIGQQTSEPQDEKEQSPETEVIVKEQPLETEVILNEQAPEPEITEPGISKETKKLMEENQRFKETMETLVKAGREQLEVISKLTSRVKSLEKKLSHKKKTQIRRRASKPMSVSPTDAVL
Turning to B6, the binding entry is listed as “binds”.

B7: RPN10 (26S proteasome non-ATPase regulatory subunit) (protein, UniProt P55034 1-386)
chain: MVLEATMICIDNSEWMRNGDYSPSRLQAQTEAVNLLCGAKTQSNPENTVGILTMAGKGVRVLTTPTSDLGKILACMHGLDVGGEINLTAAIQIAQLALKHRQNKNQRQRIIVFAGSPIKYEKKALEIVGKRLKKNSVSLDIVNFGEDDDEEKPQKLEALLTAVNNNDGSHIVHVPSGANALSDVLLSTPVFTGDEGASGYVSAAAAAAAAGGDFDFGVDPNIDPELALALRVSMEEERARQEAAAKKAADEAGQKDKDGDTASASQETVARTTDKNAEPMDEDSALLDQAIAMSVGDVNMSEAADEDQDLALALQMSMSGEESSEATGAGNNLLGNQAFISSVLSSLPGVDPNDPAVKELLASLPDESKRTEEEESSSKKGEDEKK
As for B7, the binding entry is “binds”.
